Whole data set: some 33,000 sequences, median “E-score (-0.5 to 0.5)” near -8e-05, cut for the highest 2% near 0.23. The list shows a part of the results.
Target: T1, Nrg2 (UniProt P38082)
T1 sequence: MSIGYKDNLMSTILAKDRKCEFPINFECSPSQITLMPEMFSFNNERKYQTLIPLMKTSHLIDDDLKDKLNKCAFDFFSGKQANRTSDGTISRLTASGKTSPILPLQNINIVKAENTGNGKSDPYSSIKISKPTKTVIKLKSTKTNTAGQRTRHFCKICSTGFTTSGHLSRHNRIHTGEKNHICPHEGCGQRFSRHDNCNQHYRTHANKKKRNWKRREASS
Test: PBM E-score (8-mer binding enrichment) (E-score (-0.5 to 0.5)); higher = stronger / more preferred TF binding
Details: protein concentration: 100 nM; construct: GST-full length
How it was run: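 Yeast transcription factors, full-length or as DNA-binding domains, were expressed with a GST tag using PURExpress in vitro transcription/translation. At about 100-200 nM they were applied to universal all-10-mer Agilent arrays, double-stranded by primer extension on fresh or once-stripped slides. Fluorescent anti-GST detected bound protein, and masliner normalised the scans. E-scores for ungapped eight-base words, pooled with reverse complements, came from the Universal PBM Analysis Suite.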

Row | Sequence | PBM E-score
1 | AACCTGAA | -0.178
2 | TGCTGTAA | -0.119
3 | CCAACTAG | 0.0525
4 | TTCAACAA | 0.0713
5 | GCCGAACA | -0.0146
6 | AAATTATT | 0.178
7 | CCCGAATA | 0.105
8 | AAGTAGAC | 0.00904
9 | CATAGTGG | 0.0653
10 | AGAAGCAG | -0.125
11 | GACGAGGA | 0.0917
12 | ACAAGGTG | 0.11
13 | AGCCGTGG | -0.213
14 | CTCTGGTA | -0.0435
15 | AGATCGTC | -0.0895
16 | ACCAACTG | 0.108
17 | TATCGCGA | 0.252
18 | AGGCCGAA | 0.026
19 | GACATTAC | -0.0297
20 | ATGATGAA | 0.31
21 | CACATCCC | 0.083
22 | GGCGATAA | 0.0868
23 | ATTTAGCC | 0.131
24 | CCATTTAC | 0.0881
25 | ACCACTAT | 0.046

Row | Sequence | PBM E-score
26 | AAAGAGGT | 0.0409
27 | ACCCAGCG | -0.179
28 | ACTGAGGA | -0.0659
29 | AAGGGATT | 0.0146
30 | GACTCAAC | 0.0715
31 | ATTTTGAA | 0.102
32 | CTTGCATA | 0.153
33 | AGCAGATA | -0.00568
34 | GATACAAC | 0.0948
35 | ATTTACGG | 0.186
36 | CCACTAAC | 0.00817
37 | TGCATGAA | 0.155
38 | CACCGTCG | -0.118
39 | CCGGCAAC | -0.142
40 | CAAGTAGA | -0.0872
41 | AGGGACGA | 0.248
42 | TCTTACCA | -0.00367
43 | TGCATTAA | 0.0765
44 | CTAGGAAA | -0.0879
45 | CCTTATGC | 0.147
46 | GAGCTATC | -0.182
47 | CCGTCCCG | -0.203
48 | ATGACTGG | -0.231
49 | GCGGCGGA | 0.181
50 | GTCCAGAA | -0.0377

Row | Sequence | PBM E-score
51 | GAGATGGC | 0.102
52 | CACTTTCG | -0.0303
53 | CACAGTTC | 0.0745
54 | AGGTGGGG | -0.0339
55 | GTCCCTGA | 0.356
56 | CATAGCGA | -0.0858
57 | CGTCACCC | -0.106
58 | AAAATGGC | 0.124
59 | AAAGTCCA | -0.00565
60 | GAACGAAC | 0.0458
61 | ACTATCCT | -0.0563
62 | AGGGCTAG | -0.142
63 | AATCCCTA | 0.154
64 | AGCCTGGA | -0.0491
65 | AGACAGAC | 0.209
66 | AGGGTCAG | -0.102
67 | CTCAACTA | 0.116
68 | ATATAGAA | 0.175
69 | GTAGACTA | -0.3
70 | CCTTGGGA | -0.0807
71 | ACTTACCA | 0.00217
72 | AGTCGAGG | -0.0493
73 | TAATAGAA | 0.0357
74 | ACCCCGAC | -0.0792
75 | CGGGCTAA | -0.175

4 records drawn at random from the list so far, as already listed:
Row | Sequence | PBM E-score
17 | TATCGCGA | 0.252
53 | CACAGTTC | 0.0745
3 | CCAACTAG | 0.0525
71 | ACTTACCA | 0.00217

Copied from above for reference:
Row | Sequence | PBM E-score
59 | AAAGTCCA | -0.00565
60 | GAACGAAC | 0.0458
61 | ACTATCCT | -0.0563

Later entries:

Row | Sequence | PBM E-score
76 | AGTTGTCA | 0.133
77 | TAGACACA | -0.216
78 | TCTATCCA | -0.0657
79 | ATAAGGGG | 0.132
80 | ACTTATCA | 0.00725
81 | TAATGCCA | 0.149
82 | GCCTCAAC | -0.0603
83 | CGATGCAG | 0.0488
84 | ATACTTAC | 0.0563
85 | GAATCAAA | 0.114
86 | ACTTCCTG | 0.0859
87 | AAGAAGAA | 0.0224
88 | GCGATATA | 0.175
89 | ATGTCGCA | 0.11
90 | ATACGCGC | 0.0766
91 | AGTCGTTG | -0.315
92 | CGGAACAC | 0.264
93 | CAGAGGGA | -0.17
94 | CCTACCGC | -0.219
95 | AGGTGTTC | -0.118
96 | CAGGGGGG | -0.282
97 | AGCTATTG | -0.133
98 | AACCGGCG | 0.091
99 | AGAGGGGA | -0.144
100 | GTCTCACA | 0.0449

Row | Sequence | PBM E-score
101 | GATACTAA | 0.167
102 | AAGTCATA | 0.131
103 | GATTGGAA | -0.0153
104 | ACGCAAGA | 0.147
105 | ATGGAAAG | 0.119
106 | GCAACCGC | -0.0846
107 | ACAGGTTG | -0.0144
108 | CCGTTTCA | 0.122
109 | CAGTGTCA | -0.0093
110 | CCACGCTA | -0.0892
111 | CTCTACGA | 0.0109
112 | AGCCTCCG | -0.153
113 | TACATAGA | 0.0247
114 | CGCGGAAA | 0.0291
115 | CAGCGACA | -0.0787
116 | GACCCATC | -0.105
117 | GAAACACA | -0.0169
118 | CATTTCGG | -0.0406
119 | CGCAGAAC | 0.173
120 | CTGCTGCA | -0.00138
121 | ATCAAGAC | 0.0473
122 | AGTTTGAC | -0.104
123 | CCACTTCC | 0.0252
124 | ACGGATAA | 0.226
125 | AGTCCTGG | -0.157

Row | Sequence | PBM E-score
126 | AGCACTCG | -0.088
127 | CGCATCTC | -0.00501
128 | ACCCGTCG | -0.139
129 | AGGAAAGA | -0.0443
130 | AACTTTGA | -0.0178
131 | CAAAGATG | -0.0125
132 | TCCTCGCA | -0.0336
133 | CCATCCTC | -0.111
134 | ACACAGAC | 0.0481
135 | CGAGGGCG | -0.0566
136 | AGGTTAAA | -0.101
137 | ACCATATC | 0.0168
138 | ATATATGG | 0.23
139 | AGTCTAAG | 0.109
140 | CAGCTTGA | -0.0115
141 | ATTCTCAA | 0.214
142 | AGTACATA | 0.046
143 | GCAGTTCC | -0.0194
144 | ACTCAGTG | -0.0144
145 | CCTCGTCA | 0.155
146 | CCCTGTAA | 0.294
147 | CTAGTTGA | 0.128
148 | CTCACTAC | 0.0227
149 | AAAAAGCT | -0.0368
150 | AATTAGAG | 0.143

Row | Sequence | PBM E-score
151 | TATGCAAA | -0.0899
152 | GGCCGACC | 0.0556
153 | AATGCATC | 0.0166
154 | AGAATATA | -0.0647
155 | AACGGGCA | -0.1
156 | AAATGCTA | 0.0225
157 | AGGGTAAT | 0.0972
158 | ACGATTCA | 0.0495
159 | CGCTCCCC | -0.197
160 | TCCTCAAA | -0.0847
161 | GACAAAAC | 0.274
162 | ATTTATGC | -0.0629
163 | TTAAGTAA | 0.00414
164 | CTAAGGAC | -0.0761
165 | AGGCGTCA | -0.132
166 | AGTGTATG | 0.0501
167 | CAGGTTCG | -0.0464
168 | AATCGTCT | -0.0302
169 | AGACTACA | 0.0216
170 | ACGCTTAG | -0.156
171 | ATTCCGAG | 0.142
172 | AAGCATTC | 0.0503
